From article PMC6160412

The chains behind the UniProt entries cited, without tags or fusion partners. Where a name states a change or a piece, a line headed by the entry shows the natural chain unless it says otherwise.
UniProt P58400: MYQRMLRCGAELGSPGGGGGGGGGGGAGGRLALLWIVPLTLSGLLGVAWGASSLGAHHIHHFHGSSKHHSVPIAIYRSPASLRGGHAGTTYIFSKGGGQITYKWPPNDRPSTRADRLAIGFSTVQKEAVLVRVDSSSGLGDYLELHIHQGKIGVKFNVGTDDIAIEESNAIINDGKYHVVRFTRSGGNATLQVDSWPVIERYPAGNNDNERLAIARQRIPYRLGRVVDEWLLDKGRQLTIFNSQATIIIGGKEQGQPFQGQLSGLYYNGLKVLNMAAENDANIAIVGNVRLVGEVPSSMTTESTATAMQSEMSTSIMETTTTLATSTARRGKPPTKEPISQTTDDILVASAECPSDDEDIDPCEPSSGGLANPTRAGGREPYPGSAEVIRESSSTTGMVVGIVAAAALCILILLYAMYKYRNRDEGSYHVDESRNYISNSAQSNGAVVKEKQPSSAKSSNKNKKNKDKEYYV

Target: GST-fused human Nrxn1β (–S4) LNS domain (human) (UniProt P58400)
Assay: pull-down; GST-Nrxn1β (–S4) (5 µM) on Glutathione Sepharose FF with NL1 (5 µM) and LRRTM2 at 1:1:1 or 1:1:5 molar ratio; 20 mM Hepes-NaOH pH 7.5, 150 mM NaCl, 2 mM CaCl2, 0.005% Tween-20; SDS-PAGE with Coomassie staining; both purified

B1: human LRRTM2 LRR domain, wild type (domain or fragment, UniProt O43300 34-371)
chain: CPPKCRCEKLLFYCDSQGFHSVPNATDKGSLGLSLRHNHITELERDQFASFSQLTWLHLDHNQISTVKEDAFQGLYKLKELILSSNKIFYLPNTTFTQLINLQNLDLSFNQLSSLHPELFYGLRKLQTLHLRSNSLRTIPVRLFWDCRSLEFLDLSTNRLRSLARNGFAGLIKLRELHLEHNQLTKINFAHFLRLSSLHTLFLQWNKISNLTCGMEWTWGTLEKLDLTGNEIKAIDLTVFETMPNLKILLMDNNKLNSLDSKILNSLRSLTTVGLSGNLWECSARICALASWLGSFQGRWEHSILCHSPDHTQGEDILDAVHGFQLCWNLSTTVTVMA
In the case of B1, the binding is reported as “binds”.

Results are given in words; binding and its absence hold for the method and conditions named. Binding can be weak; no strength is given.
